Record: PubChem BioAssay AID1259315 (Drosophila RNAi Screening Center, 2017)

- Purpose: 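Fly genes whose loss alters cell survival under toxic zinc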 (primary screen)
- Cell system: Drosophila S2R+ cells
- Knock-down reagent: long dsRNA against Drosophila genes
- Time to read-out: 5 days (4 days knock-down, then 1 day with zinc)
- Challenge: zinc chloride added to 15 mM final for 1 day
- Measured: 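ATP luminescence reflecting cell viability after 4 days of knock-down then 1 day with 15 mM zinc chloride; mean z-score of two replicate plates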
- Reading the numbers: mean ATP z-score: higher = more ATP, more cells surviving zinc
- Call rule: 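Hit when the mean ATP z-score exceeds 1.5 or falls below -1.5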
Here is an unselected part of 418 reagents tested. 17 of them (4.1%) count as active. 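z-scores average two replicate plates; all hits raised ATP and none lowered it.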 Not stated in the record: the amount of reagent.

Target gene,amplicon,mean ATP z-score,activity call
CG14777 (GeneID 31099),DRSC18563,-0.0612,inactive
CG14777 (GeneID 31099),DRSC40040,-0.355,inactive
Npc2b (GeneID 41710),DRSC15464,0.268,inactive
CG9886 (GeneID 33431),DRSC00732,-0.214,inactive
CG9886 (GeneID 33431),DRSC40409,-0.336,inactive
CG9886 (GeneID 33431),DRSC41580,-0.171,inactive
Mvl (GeneID 42490),DRSC16752,-0.138,inactive
Mvl (GeneID 42490),DRSC39671,0.691,inactive
Mvl (GeneID 42490),DRSC40923,-0.0927,inactive
CG3902 (GeneID 40059),DRSC10387,4.71,active
CG3902 (GeneID 40059),DRSC24267,-0.187,inactive
Arc42 (GeneID 42364),DRSC14340,-0.188,inactive
Arc42 (GeneID 42364),DRSC31950,-0.167,inactive
Arc42 (GeneID 42364),DRSC31951,-0.0483,inactive
Abcd3 (GeneID 32992),DRSC29341,-0.322,inactive
Abcd3 (GeneID 32992),DRSC41060,-0.364,inactive
Abcd3 (GeneID 32992),DRSC41168,-0.257,inactive
VhaAC39-2 (GeneID 42739),DRSC15609,-0.2,inactive
VhaAC39-2 (GeneID 42739),DRSC34799,-0.182,inactive
Vha13 (GeneID 42341),DRSC16895,0.592,inactive
Vps24 (GeneID 40542),DRSC12332,-0.162,inactive
Vps24 (GeneID 40542),DRSC29224,-0.316,inactive
Vps24 (GeneID 40542),DRSC34417,-0.0163,inactive
CG13084 (GeneID 35229),DRSC02188,-0.709,inactive
Hel25E (GeneID 33781),DRSC28348,9.59,active
Hel25E (GeneID 33781),DRSC30679,7.47,active
Hel25E (GeneID 33781),DRSC30680,9.93,active
Pex2 (GeneID 38941),DRSC10770,-0.184,inactive
Pex2 (GeneID 38941),DRSC38311,-0.368,inactive
CtsF (GeneID 40628),DRSC12056,-0.142,inactive
CtsF (GeneID 40628),DRSC12195,0.192,inactive
CtsF (GeneID 40628),DRSC12196,-0.227,inactive
Vps25 (GeneID 35847),DRSC06486,-0.255,inactive
Vps25 (GeneID 35847),DRSC31962,-0.274,inactive
Vps25 (GeneID 35847),DRSC31963,-0.223,inactive
AP-1mu (GeneID 41150),DRSC14089,-0.452,inactive
AP-1mu (GeneID 41150),DRSC25744,-0.614,inactive
Pex1 (GeneID 45460),DRSC11358,-0.199,inactive
VhaM9.7-b (GeneID 40389),DRSC11841,-0.224,inactive
VhaM9.7-b (GeneID 40389),DRSC40199,0.459,inactive
Ect3 (GeneID 41457),DRSC15462,-0.148,inactive
Ect3 (GeneID 41457),DRSC25392,-0.456,inactive
Ect3 (GeneID 41457),DRSC35713,-0.348,inactive
Npc2f (GeneID 42864),DRSC15980,0.0968,inactive
VhaAC39-1 (GeneID 31342),DRSC27608,0.409,inactive
VhaAC39-1 (GeneID 31342),DRSC31237,-0.124,inactive
VhaAC39-1 (GeneID 31342),DRSC31238,-0.141,inactive
Acox57D-d (GeneID 37446),DRSC04561,-0.0537,inactive
Acox57D-d (GeneID 37446),DRSC30108,1.75,active
CG12355 (GeneID 2768954),DRSC09381,-0.349,inactive
CG12355 (GeneID 2768954),DRSC09883,-0.0753,inactive
CG31928 (GeneID 326175),DRSC00293,-0.0901,inactive
Vha16-1 (GeneID 44307),DRSC05020,0.65,inactive
Vha16-1 (GeneID 44307),DRSC32228,0.486,inactive
Vha16-1 (GeneID 44307),DRSC32229,-0.0149,inactive
Coprox (GeneID 44701),DRSC01996,-0.124,inactive
Coprox (GeneID 44701),DRSC28744,-0.243,inactive
Sod3 (GeneID 36232),DRSC07324,-0.0786,inactive
Sod3 (GeneID 36232),DRSC26222,-0.423,inactive
Vps16A (GeneID 41107),DRSC16422,-0.00925,inactive
Vps16A (GeneID 41107),DRSC36082,-0.257,inactive
ZnT63C (GeneID 38407),DRSC08519,-0.201,inactive
ZnT63C (GeneID 38407),DRSC23528,-0.386,inactive
ZnT63C (GeneID 38407),DRSC37698,-0.425,inactive
VhaSFD (GeneID 34997),DRSC03471,0.537,inactive
VhaSFD (GeneID 34997),DRSC32234,0.086,inactive
VhaSFD (GeneID 34997),DRSC32235,0.235,inactive
Vha55 (GeneID 41550),DRSC26184,0.235,inactive
Vha55 (GeneID 41550),DRSC31689,-0.0669,inactive
Vha55 (GeneID 41550),DRSC31690,-0.273,inactive
CG10194 (GeneID 35231),DRSC02025,-0.141,inactive
Vha100-2 (GeneID 42216),DRSC14152,0.325,inactive
Vha100-2 (GeneID 42216),DRSC29227,0.526,inactive
Vha68-3 (GeneID 34695),DRSC02809,-0.22,inactive
Vha68-3 (GeneID 34695),DRSC25742,-0.194,inactive
rb (GeneID 31381),DRSC18826,-0.114,inactive
rb (GeneID 31381),DRSC27940,-0.112,inactive
Vha100-4 (GeneID 42214),DRSC16282,-0.328,inactive
Vha100-4 (GeneID 42214),DRSC26139,-0.123,inactive
Acox3 (GeneID 33898),DRSC03251,-0.278,inactive
Acox3 (GeneID 33898),DRSC23799,-0.253,inactive
Dhrs4 (GeneID 38598),DRSC09773,-0.12,inactive
CG4860 (GeneID 41480),DRSC21755,-0.198,inactive
VhaM9.7-c (GeneID 38503),DRSC08204,-0.091,inactive
VhaM9.7-c (GeneID 38503),DRSC30083,-0.262,inactive
Vps13B (GeneID 43550),DRSC15060,-0.307,inactive
Vps13B (GeneID 43550),DRSC34131,-0.21,inactive
Vha36-2 (GeneID 36328),DRSC06294,-0.0158,inactive
Vha36-2 (GeneID 36328),DRSC29238,0.0459,inactive
CtsL1 (GeneID 36546),DRSC05462,-0.494,inactive
CtsL1 (GeneID 36546),DRSC07363,-0.358,inactive
CtsL1 (GeneID 36546),DRSC29071,-0.42,inactive
g (GeneID 44819),DRSC20335,-0.162,inactive
g (GeneID 44819),DRSC26118,-0.239,inactive
Npc1b (GeneID 33072),DRSC20488,-0.21,inactive
Npc1b (GeneID 33072),DRSC36136,-0.29,inactive
Npc1b (GeneID 33072),DRSC39575,-0.353,inactive
ClC-a (GeneID 41428),DRSC14947,1.01,inactive
ClC-a (GeneID 41428),DRSC14948,0.51,inactive
ClC-a (GeneID 41428),DRSC16142,0.968,inactive
gb (GeneID 43265),DRSC15961,-0.127,inactive
gb (GeneID 43265),DRSC24834,0.173,inactive
Gga (GeneID 31902),DRSC18260,-0.267,inactive
Gga (GeneID 31902),DRSC27761,-0.137,inactive
beta-Man (GeneID 40524),DRSC12208,0.207,inactive
beta-Man (GeneID 40524),DRSC12209,-0.0372,inactive
CG7408 (GeneID 39991),DRSC10841,-0.211,inactive
Vha36-1 (GeneID 44702),DRSC07098,3.35,active
Vha36-1 (GeneID 44702),DRSC25624,-0.0355,inactive
mv (GeneID 38259),DRSC08208,-0.14,inactive
mv (GeneID 38259),DRSC28733,0.668,inactive
mv (GeneID 38259),DRSC33279,-0.149,inactive
Vps28 (GeneID 47408),DRSC06168,0.476,inactive
Vps28 (GeneID 47408),DRSC31695,0.177,inactive
Vps28 (GeneID 47408),DRSC31696,-0.199,inactive
Xpd (GeneID 37414),DRSC27757,-0.0521,inactive
Xpd (GeneID 37414),DRSC36088,-0.129,inactive
Xpd (GeneID 37414),DRSC41045,-0.0852,inactive
PMP34 (GeneID 38532),DRSC21939,-0.192,inactive
PMP34 (GeneID 38532),DRSC39444,-0.293,inactive
ScpX (GeneID 44183),DRSC03430,-0.279,inactive
Pex11c (GeneID 42751),DRSC14677,-0.132,inactive
ATP6AP2 (GeneID 41104),DRSC16420,-0.233,inactive
ATP6AP2 (GeneID 41104),DRSC35549,0.0216,inactive
ATP6AP2 (GeneID 41104),DRSC39882,-0.379,inactive
Parp1 (GeneID 3355109),DRSC07725,-0.318,inactive
Parp1 (GeneID 3355109),DRSC07778,0.00234,inactive
Parp1 (GeneID 3355109),DRSC07780,-0.0693,inactive
Acox57D-p (GeneID 37445),DRSC04560,-0.151,inactive
Acox57D-p (GeneID 37445),DRSC39339,-0.502,inactive
Vha36-3 (GeneID 31235),DRSC18615,0.248,inactive
Vha36-3 (GeneID 31235),DRSC28636,-0.111,inactive
CROT (GeneID 43332),DRSC27733,-0.376,inactive
CROT (GeneID 43332),DRSC32670,-0.309,inactive
CROT (GeneID 43332),DRSC32671,0.0506,inactive
CG9577 (GeneID 33016),DRSC20693,-0.412,inactive
CG9577 (GeneID 33016),DRSC27691,-0.221,inactive
Vps20 (GeneID 37581),DRSC04448,-0.408,inactive
Vps20 (GeneID 37581),DRSC36248,-0.246,inactive
Vps20 (GeneID 37581),DRSC36249,-0.244,inactive

19 entries from above, sorted by “mean ATP z-score”, high to low.
Target gene,amplicon,mean ATP z-score,activity call
VhaSFD (GeneID 34997),DRSC03471,0.537,inactive
Vha100-2 (GeneID 42216),DRSC29227,0.526,inactive
Vha100-2 (GeneID 42216),DRSC14152,0.325,inactive
VhaSFD (GeneID 34997),DRSC32235,0.235,inactive
Vha55 (GeneID 41550),DRSC26184,0.235,inactive
VhaSFD (GeneID 34997),DRSC32234,0.086,inactive
Vps16A (GeneID 41107),DRSC16422,-0.00925,inactive
Vha55 (GeneID 41550),DRSC31689,-0.0669,inactive
Sod3 (GeneID 36232),DRSC07324,-0.0786,inactive
Coprox (GeneID 44701),DRSC01996,-0.124,inactive
CG10194 (GeneID 35231),DRSC02025,-0.141,inactive
ZnT63C (GeneID 38407),DRSC08519,-0.201,inactive
Vha68-3 (GeneID 34695),DRSC02809,-0.22,inactive
Coprox (GeneID 44701),DRSC28744,-0.243,inactive
Vps16A (GeneID 41107),DRSC36082,-0.257,inactive
Vha55 (GeneID 41550),DRSC31690,-0.273,inactive
ZnT63C (GeneID 38407),DRSC23528,-0.386,inactive
Sod3 (GeneID 36232),DRSC26222,-0.423,inactive
ZnT63C (GeneID 38407),DRSC37698,-0.425,inactive
